Experimental data from US20250367575A1 (PUROLITE, published 2025).

Columns and labels:
Belimumab (IgG1) [1] = experiment: method not given; paragraph 95 says KD values are by surface plasmon resonance at 22 C +/- 3 C unless indicated otherwise
Belimumab (IgG1) [2] = experiment: dynamic binding capacity at 10% breakthrough, ligand coupled to resin, 6 min residence time, 2.2 mg/ml Belimumab

B1: affinity ligand SEQ ID NO: 2 (designed binder)
chain: AQHDKIQQAAFHEILHLPNLTEEQRNKFIQSLRDDPSVSLEILCEAKKLNDAQAPKIAAQHDKIQQAAFHEILHLPNLTEEQRNKFIQSLRDDPSVSLEILAEAKKLNDAQAPK
Belimumab (IgG1) [1]
  Kd: 47.4 nM
Belimumab (IgG1) [2]
  DBC10% (dynamic binding capacity) relative to cs26: 104 % of cs26
